The other results are listed elsewhere or left out.

By UniProt entry, the sequences of proteins in these tests, tags left out.
UniProt Q0JBA9, entry or part of it: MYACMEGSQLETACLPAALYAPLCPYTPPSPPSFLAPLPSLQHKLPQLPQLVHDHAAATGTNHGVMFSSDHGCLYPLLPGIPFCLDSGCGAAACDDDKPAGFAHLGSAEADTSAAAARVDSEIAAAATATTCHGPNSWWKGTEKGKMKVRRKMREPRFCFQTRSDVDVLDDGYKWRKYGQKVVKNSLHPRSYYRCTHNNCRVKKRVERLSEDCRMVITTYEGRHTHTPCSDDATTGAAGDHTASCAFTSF

The target in the assay is OsWRKY34 (Oryza sativa, UniProt Q0JBA9 1-250). Put plainly: protein-binding microarray (RPBM); PBS, 2% BSA, 51.3 ng/ul salmon testes DNA, 50 uM zinc acetate, 200 nM TF, 25 C, 1 h; high values mean tight binding. The conditions noted are these: protein: recombinant; tags: N-terminal polyhistidine and DsRed monomer fusion (pET32a); label: CyDye5-dUTP incorporated in the synthesized complementary strand; 3' TTTTT single-stranded linker to array surface; dsDNA, one strand shown. Summed up: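 An Axon 4000B scanner gave the binding signal as per-feature fluorescence intensity in arbitrary units. This followed washing of a custom Agilent array that had been incubated for 1 h at 25 °C with 200 nM protein in PBS, 2% BSA, salmon testes DNA and 50 µM zinc acetate. The proteins were transcription factors fused at the N-terminus to polyhistidine and DsRed, expressed in E. coli BL21-CodonPlus and purified on Ni–NTA.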
As for “GGTTGGGACGTGGAGAGTTGTTTGTAGATCGAGTTGAAAGCGGAGTCACCTAGTGCAG”, the binding signal is 9120 fluorescence intensity (a.u.).
With “CAACTTTTCCATCACACCGTTTCAATTTTAACCAAACTTCCGGAGTCACCTAGTGCAG” the figure was 9410 fluorescence intensity (a.u.).
With “TGATTTTAAGGTTTTTTTTCATGATTTATTTTGCAACATTCGGAGTCACCTAGTGCAG” the figure was 8190 fluorescence intensity (a.u.); with “CCTATCAAAATCATACGTTTTTCTTATTCCTACGTTTTCTCGGAGTCACCTAGTGCAG”, 12500 fluorescence intensity (a.u.).
With “ATCAATCTTAATTCGCTTCTACATTGGGGTGCTTGTTAATCGGAGTCACCTAGTGCAG” the figure was 10300 fluorescence intensity (a.u.).
Regarding “GATCACTCTGCCTTGTCTTAGGAGGGCCCCTTTTATTTATCGGAGTCACCTAGTGCAG”, the binding signal was 11800 fluorescence intensity (a.u.).
In the case of “GCGTCGTGTTTCCGGGGTCCCCTGCCACTGTCGAGCGCTGCGGAGTCACCTAGTGCAG” it was 8220 fluorescence intensity (a.u.); in that of “GATGATTCTGTTTGGTTAGCTTCTCCGAGATTTGGAGGCCCGGAGTCACCTAGTGCAG”, 8060 fluorescence intensity (a.u.).
As to “CTCCGCTCCCGCTTCCCCGAGTTCCGCCGCTACAAGCTCGCGGAGTCACCTAGTGCAG”, the binding signal is 8040 fluorescence intensity (a.u.).
In the case of “ACTGCTTTACAGTAAAGCCATTGTACTACATGTCTTTTTTCGGAGTCACCTAGTGCAG” it was 8620 fluorescence intensity (a.u.); in that of “TTGGCATGGTTATTTCATCCCCAAAATTTGCTTATAGCCACGGAGTCACCTAGTGCAG”, 8470 fluorescence intensity (a.u.); in that of “TTTGGATTGGGTTTGGTGGTTGGGTGGGAGGGAGGGAGCTCGGAGTCACCTAGTGCAG”, 28600 fluorescence intensity (a.u.).
On to “GGAGGACGCGTGGCGTTGGCATGCTCGTTTCGGCCACATCCGGAGTCACCTAGTGCAG”, for which the binding signal was 9040 fluorescence intensity (a.u.).
In the case of “AATTGCTGTTGATTTGCCACTACCACTCTCCCCAACAAGTCGGAGTCACCTAGTGCAG” it was 8640 fluorescence intensity (a.u.); in that of “GCGTCTACACTTATACCATGTTTGTCAAGATCTCACTTCACGGAGTCACCTAGTGCAG”, 10700 fluorescence intensity (a.u.).
With “CATACCAACTATGCAGCATTAATTCCACCTCTTAAGTTACCGGAGTCACCTAGTGCAG” the figure was 8090 fluorescence intensity (a.u.); with “CTTATTAGTACCAACTATATCTCGCTGGATTTTGTAGATTCGGAGTCACCTAGTGCAG”, 8720 fluorescence intensity (a.u.).
In the case of “GCTCACCTCCAAAGCCGCGTTCCTGTCACTCGGCCACACTCGGAGTCACCTAGTGCAG” it was 9750 fluorescence intensity (a.u.); in that of “TGTAATGTGTTATATTTTAGGATTAATCAGTTGTTCCTACCGGAGTCACCTAGTGCAG”, 8470 fluorescence intensity (a.u.); in that of “TGGTGGTGGAAATTTTGGAAATCGTGAGGGCTACACATACCGGAGTCACCTAGTGCAG”, 9540 fluorescence intensity (a.u.).
Turning to “TCCTATATTTTTTTCTTATACCTCCGTTTTCTCAATTCTACGGAGTCACCTAGTGCAG”, the binding signal is 12300 fluorescence intensity (a.u.).
Consider “GCCGCCGCCACCACCGCCGCCTTATCGGCATCCGGGCTCACGGAGTCACCTAGTGCAG”, for which the binding signal is 8230 fluorescence intensity (a.u.).
Consider “GTAAAGCTTCTTGCACTGTGGCTAGCTTCAAGCTCAAAACCGGAGTCACCTAGTGCAG”, for which the binding signal is 8950 fluorescence intensity (a.u.).
With “ACCTATCCCATTCCCAACTGGAAACCAAAGCACGATTCAGCGGAGTCACCTAGTGCAG” the figure was 8170 fluorescence intensity (a.u.); with “ATAGCGGTTGAGGGTGGGCTTCCTTGAGTCTGTGAGTGCCCGGAGTCACCTAGTGCAG”, 13400 fluorescence intensity (a.u.); with “TGCCATGCACGCCGCCTCGTCCTTGTTCTTGACCCGCGCCCGGAGTCACCTAGTGCAG”, 10400 fluorescence intensity (a.u.).
In the case of “AGGCAGGGTGGGTGGGTGGTGGGCTTGCTCGCTCCGCGTCCGGAGTCACCTAGTGCAG” it was 19700 fluorescence intensity (a.u.); in that of “CCGCTGGCGCACTCGCTCCACGCCGCCCGCCGCCGCGCCCCGGAGTCACCTAGTGCAG”, 8280 fluorescence intensity (a.u.); in that of “GGCTCTCGCTCTCACCTCGTTAGGTGCCGCGTCGCTCTTCCGGAGTCACCTAGTGCAG”, 8740 fluorescence intensity (a.u.).
Turning to “CTCTACATGTGGGACTATTATTGCTCGGCTGGGTTGTTACCGGAGTCACCTAGTGCAG”, the binding signal was 10000 fluorescence intensity (a.u.).
In the case of “GAGGATTGATTTGTTTTTTTTTTTTGGGGTTTTCTCTTCTCGGAGTCACCTAGTGCAG”, the binding signal was 16300 fluorescence intensity (a.u.).
With “GAGTCACTCTCACTCACTCCACCCCGGCCACTCGTAAACCCGGAGTCACCTAGTGCAG” the figure was 11100 fluorescence intensity (a.u.).
With “CTCTCTCGCCTCTCTATCTATCTGGGCCCAGAGGTTGGATCGGAGTCACCTAGTGCAG” the figure was 9630 fluorescence intensity (a.u.); with “CTCTCCGGTTGGCCTCTGCTTCGTTCTCCTTCGCGCAGATCGGAGTCACCTAGTGCAG”, 9530 fluorescence intensity (a.u.).
With “GTGTTTGATTTGCCTCTCTTAAGAACCACTGTGAAAACATCGGAGTCACCTAGTGCAG” the figure was 9680 fluorescence intensity (a.u.).
On to “ATGTTATGTATGTTGTACTATCCTCTCTATCGTCCTAAAACGGAGTCACCTAGTGCAG”, for which the binding signal was 8500 fluorescence intensity (a.u.).
In the case of “CCGTACAAAAAGCATCTTACGGTGGGGTCAGGTGTATTTTCGGAGTCACCTAGTGCAG” it was 10300 fluorescence intensity (a.u.).
In the case of “TTTTTGTCGGTATTTTGGTACGTTATTTGTATTTTAGCCACGGAGTCACCTAGTGCAG” it was 10300 fluorescence intensity (a.u.); in that of “TGTAGCCACAATTGTGTCAACTCCTTTGCTGTCTTCTCTACGGAGTCACCTAGTGCAG”, 8450 fluorescence intensity (a.u.); in that of “TGTAAACGCCGCATGCTTCTGCTTTTTTGGTATGTTTCCTCGGAGTCACCTAGTGCAG”, 9660 fluorescence intensity (a.u.).
As for “TTCATTGTTTTGGTCAACTCGGGCTTGTTGCTTTTAATCACGGAGTCACCTAGTGCAG”, the binding signal was 11000 fluorescence intensity (a.u.).
Regarding “CAATATTATTTAGTCTCTCGTTGATGTTGCACCCTAAATACGGAGTCACCTAGTGCAG”, the binding signal was 8200 fluorescence intensity (a.u.).

Values taken from article PMC7819943, “Rice protein-binding microarrays: a tool to detect cis-acting elements near promoter regions in rice”.
